Results are given in words; binding and its absence hold for the method and conditions named. Binding seen in cells or lysates may run through a third protein. Some results given as binding are weak or reduced against the parent protein; the word gives no strength. For some assays here: Where a sequence is shown, tags or fusion partners need not be part of it.
How the values were obtained:
[1] = biological target: myc-TGFβRII (human TGF-β receptor type II, from pcMV-myc-TGFβRII) (human) (UniProt P37173); assay: co-IP; HEK 293T cells co-expressing pcMV-myc-TGFβRII or pcMV-myc-TGFβRI with pcDNA3.1-TSP50; cell extracts (IP lysis solution) precipitated with anti-myc antibody on Protein A/G magnetic beads overnight at 4 °C, blot with anti-TSP50; reciprocal co-IP also done
[2] = biological target: T1, myc-TGFβRI (human TGF-β receptor type I, from pcMV-myc-TGFβRI) (human) (UniProt P36897); assay: as above
T1 sequence: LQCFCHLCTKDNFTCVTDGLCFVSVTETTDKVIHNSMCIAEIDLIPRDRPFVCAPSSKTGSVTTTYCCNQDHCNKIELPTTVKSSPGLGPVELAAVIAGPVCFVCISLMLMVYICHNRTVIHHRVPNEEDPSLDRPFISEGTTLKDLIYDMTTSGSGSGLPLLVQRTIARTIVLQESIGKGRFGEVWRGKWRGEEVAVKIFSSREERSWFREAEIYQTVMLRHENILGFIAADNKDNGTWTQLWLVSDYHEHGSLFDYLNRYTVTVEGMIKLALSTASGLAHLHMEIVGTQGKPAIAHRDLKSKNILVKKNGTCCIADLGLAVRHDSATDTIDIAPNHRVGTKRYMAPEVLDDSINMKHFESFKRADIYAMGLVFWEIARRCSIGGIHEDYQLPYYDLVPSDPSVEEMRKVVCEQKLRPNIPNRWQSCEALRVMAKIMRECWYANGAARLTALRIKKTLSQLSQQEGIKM

The chains behind the UniProt entries cited, without tags or fusion partners. Residues count along the entry.
UniProt P37173, residues 23-567: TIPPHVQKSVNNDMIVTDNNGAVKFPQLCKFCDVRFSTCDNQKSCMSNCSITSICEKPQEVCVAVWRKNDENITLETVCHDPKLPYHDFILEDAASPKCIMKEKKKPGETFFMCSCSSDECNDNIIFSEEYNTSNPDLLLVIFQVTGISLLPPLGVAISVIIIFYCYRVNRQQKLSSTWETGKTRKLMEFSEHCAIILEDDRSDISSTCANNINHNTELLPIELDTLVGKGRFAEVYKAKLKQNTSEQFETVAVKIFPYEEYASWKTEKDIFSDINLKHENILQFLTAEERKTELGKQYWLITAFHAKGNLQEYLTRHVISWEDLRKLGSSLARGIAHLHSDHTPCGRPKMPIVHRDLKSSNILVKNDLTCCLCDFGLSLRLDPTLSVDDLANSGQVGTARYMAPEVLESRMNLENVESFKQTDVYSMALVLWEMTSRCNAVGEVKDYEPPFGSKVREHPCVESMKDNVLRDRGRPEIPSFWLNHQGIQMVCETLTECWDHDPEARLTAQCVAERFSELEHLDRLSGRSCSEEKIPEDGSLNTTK

B1: Testis-specific protease 50 (TSP50), expressed from pcDNA3.1-TSP50 (protein, UniProt Q9UI38 40-385)
chain: AGEAPGALSTADPADQSVQCVPKATCPSSRPRLLWQTPTTQTLPSTTMETQFPVSEGKVDPYRSCGFSYEQDPTLRDPEAVARRWPWMVSVRANGTHICAGTIIASQWVLTVAHCLIWRDVIYSVRVGSPWIDQMTQTASDVPVLQVIMHSRYRAQRFWSWVGQANDIGLLKLKQELKYSNYVRPICLPGTDYVLKDHSRCTVTGWGLSKADGMWPQFRTIQEKEVIILNNKECDNFYHNFTKIPTLVQIIKSQMMCAEDTHREKFCYELTGEPLVCSMEGTWYLVGLVSWGAGCQKSEAPPIYLQVSSYQHWIWDCLNGQALALPAPSRTLLLALPLPLSLLAAL
In the case of B1, the binding [1] is reported as “binds” and the binding [2] is reported as “no binding”.

Reference: article PMC10953580
